Measurements as given in US7723058B2, “Test system for the determination of in-vivo active hemostasis proteases in biological fluids and/or the usage thereof to determine the in-vivo activation of hemostasis” (priority 2001, dated 2010).
Not every detail of the peptide structures is certain; ends, links or a residue may be inferred. Where a SMILES comes first, the peptide text is derived from it. [ ]: non-standard residue; d: D form. The star is where a group is joined. dChg = N[C@@H](C(=O)O)C1CCCCC1; pNA = O=[N+]([O-])c1ccc(N*)cc1

Columns and labels:
Format in all cases: biochemical
[1] = tested on: plasma samples of example 3; assay: Exhaustion of substrate (incubation increased to 24 h)
[2] = tested on: STA Preciclot I plasma with EDTA; assay: GACA, substrate optimization using 750 mM arginine-reagent, normal plasma; conditions: 37° C.
[3] = tested on: STA Preciclot I plasma with EDTA, supplemented with thrombin; assay: GACA, substrate optimization using 750 mM arginine-reagent, pathoplasma; conditions: 37° C.
normal EDTA-plasma = assay: 1-step-CPC, optimization of substrate concentration, normal plasma; conditions: RT
[4] = tested on: normal EDTA-plasma supplemented with bovine thrombin; assay: 1-step-CPC, optimization of substrate concentration, pathoplasma; conditions: RT
Control Plasma N® = assay: Reaction kinetic of the 1-step-CPC
[5] = final conc. of substrate 3.33 mM
[6] = final conc. of substrate 0.1 mM
[7] = final conc. of substrate 0.14 mM
[8] = final conc. of substrate 0.19 mM
[9] = final conc. of substrate 0.25 mM
[10] = final conc. of substrate 0.33 mM
[11] = final conc. of substrate 0.44 mM
[12] = final conc. of substrate 0.59 mM
[13] = final conc. of substrate 0.79 mM
[14] = final conc. of substrate 1.05 mM
[15] = final conc. of substrate 1.4 mM
[16] = final conc. of substrate 1.87 mM
[17] = final conc. of substrate 2.15 mM
[18] = final conc. of substrate 0.27 mM
[19] = final conc. of substrate 0.38 mM
[20] = final conc. of substrate 0.54 mM
[21] = final conc. of substrate 0.76 mM
[22] = final conc. of substrate 1.07 mM
[23] = final conc. of substrate 1.5 mM

C[C@H](NC(=O)[C@H](N)C1CCCCC1)C(=O)N[C@@H](CCCNC(=N)N)C(=O)Nc1ccc([N+](=O)[O-])cc1 [HD-CHG-Ala-Arg-pNA, HD-CHG-Ala-Arg-pNA.2AcOH] (H-[dChg]-Ala-Arg-pNA)
Max. Increase of Extinction ([1]; final conc. of substrate 1.04 mM): 2348 mA
Max. Increase of Extinction ([1]; final conc. of substrate 1.19 mM): 2523 mA
Max. Increase of Extinction ([1]; final conc. of substrate 1.29 mM): 2697 mA
Max. Increase of Extinction ([1]; final conc. of substrate 1.39 mM): 2707 mA
Max. Increase of Extinction ([1]; final conc. of substrate 1.58 mM): 2714 mA
Max. Increase of Extinction ([1]; final conc. of substrate 1.76 mM): 2837 mA
Max. Increase of Extinction ([1]; final conc. of substrate 1.95 mM): 2913 mA
Max. Increase of Extinction ([1]; final conc. of substrate 2.18 mM): 3050 mA
Max. Increase of Extinction ([1]; final conc. of substrate 2.38 mM): 3043 mA
Max. Increase of Extinction ([1]; final conc. of substrate 2.67 mM): 3271 mA
Max. Increase of Extinction ([1]; final conc. of substrate 2.97 mM): 2933 mA
Max. Increase of Extinction [1, 5]: 2827 mA
Max. Increase of Extinction ([1]; final conc. of substrate 6.67 mM): 2748 mA
Enz.-act. Normal Plasma [2, 6]: 33 mA/3 h
Enz.-act. Normal Plasma [2, 7]: 40 mA/3 h
Enz.-act. Normal Plasma [2, 8]: 64 mA/3 h
Enz.-act. Normal Plasma [2, 9]: 74 mA/3 h
Enz.-act. Normal Plasma [2, 10]: 94 mA/3 h
Enz.-act. Normal Plasma [2, 11]: 126 mA/3 h
Enz.-act. Normal Plasma [2, 12]: 160 mA/3 h
Enz.-act. Normal Plasma [2, 13]: 205 mA/3 h
Enz.-act. Normal Plasma [2, 14]: 284 mA/3 h
Enz.-act. Normal Plasma [2, 15]: 372 mA/3 h
Enz.-act. Normal Plasma [2, 16]: 515 mA/3 h
Enz.-act. Normal Plasma [2, 17]: 721 mA/3 h
Enz.-act. Normal Plasma [2, 5]: 822 mA/3 h
Enz.-act. Pathoplasma [3, 6]: 112 mA/3 h
Enz.-act. Pathoplasma [3, 7]: 134 mA/3 h
Enz.-act. Pathoplasma [3, 8]: 213 mA/3 h
Enz.-act. Pathoplasma [3, 9]: 244 mA/3 h
Enz.-act. Pathoplasma [3, 10]: 302 mA/3 h
Enz.-act. Pathoplasma [3, 11]: 391 mA/3 h
Enz.-act. Pathoplasma [3, 12]: 481 mA/3 h
Enz.-act. Pathoplasma [3, 13]: 619 mA/3 h
Enz.-act. Pathoplasma [3, 14]: 731 mA/3 h
Enz.-act. Pathoplasma [3, 15]: 902 mA/3 h
Enz.-act. Pathoplasma [3, 16]: 1094 mA/3 h
Enz.-act. Pathoplasma [3, 17]: 1260 mA/3 h
Enz.-act. Pathoplasma [3, 5]: 1477 mA/3 h
maximal velocity of enzyme (normal EDTA-plasma): approx. 650 mA/4 min
test concentration at halfmaximal velocity (normal EDTA-plasma): approx. 0.4 mM
Enz.-act. Normal Plasma (normal EDTA-plasma; [7]): 105 mA/4 min
Enz.-act. Normal Plasma (normal EDTA-plasma; [8]): 180 mA/4 min
Enz.-act. Normal Plasma (normal EDTA-plasma; [18]): 232 mA/4 min
Enz.-act. Normal Plasma (normal EDTA-plasma; [19]): 301 mA/4 min
Enz.-act. Normal Plasma (normal EDTA-plasma; [20]): 454 mA/4 min
Enz.-act. Normal Plasma (normal EDTA-plasma; [21]): 607 mA/4 min
Enz.-act. Normal Plasma (normal EDTA-plasma; [22]): 614 mA/4 min
Enz.-act. Normal Plasma (normal EDTA-plasma; [23]): 595 mA/4 min
Enz.-act. Pathoplasma [4, 7]: 123 mA/4 min
Enz.-act. Pathoplasma [4, 8]: 173 mA/4 min
Enz.-act. Pathoplasma [4, 18]: 247 mA/4 min
Enz.-act. Pathoplasma [4, 19]: 342 mA/4 min
Enz.-act. Pathoplasma [4, 20]: 428 mA/4 min
Enz.-act. Pathoplasma [4, 21]: 573 mA/4 min
Enz.-act. Pathoplasma [4, 22]: 526 mA/4 min
Enz.-act. Pathoplasma [4, 23]: 570 mA/4 min
increase in extinction to the 0 min value (Control Plasma N®; 1 min RT (by order of listing)): 610 mA
increase in extinction to the 0 min value (Control Plasma N®; 2 min RT (by order of listing)): 940 mA
increase in extinction to the 0 min value (Control Plasma N®; 3 min RT (by order of listing)): 1076 mA
increase in extinction to the 0 min value (Control Plasma N®; 4 min RT (by order of listing)): 1174 mA
increase in extinction to the 0 min value (Control Plasma N®; 5 min RT (by order of listing)): 1234 mA
increase in extinction to the 0 min value (Control Plasma N®; 6 min RT (by order of listing)): 1292 mA
increase in extinction to the 0 min value (Control Plasma N®; 7 min RT (by order of listing)): 1318 mA
increase in extinction to the 0 min value (Control Plasma N®; 8 min RT (by order of listing)): 1334 mA
increase in extinction to the 0 min value (Control Plasma N®; 9 min RT (by order of listing)): 1356 mA
